Patent publication US20240025959A1
These are yes or no findings as the source states them, for the method shown. In cells and extracts the contact can be indirect.

Molecular target: JNK
Experiment: co-IP with anti-Flag beads and immunoblot; 293T cells co-transfected with Flag-Beclin 2 and an HA-tagged plasmid (FIG. 8A)

B1: Beclin 2 (human, full length) (protein)
chain: MSSIRFLCQRCHQALKLSGSSESRSLPAAPAPTSGQAEPGDTREPGVTTREVTDAEEQQDGASSRSPPGDGSVSKGHANIFTLLGELGAMHMLSSIQKAAGDIFDIVSGQAVVDHPLCEECTDSLLEQLDIQLALTEADSQNYQRCLETGELATSEDEAAALRAELRDLELEEARLVQELEDVDRNNARAAADLQAAQAEAAELDQQERQHYRDYSALKRQQLELLDQLGNVENQLQYARVQRDRLKEINCFTATFEIWVEGPLGVINNFRLGRLPTVRVGWNEINTAWGQAALLLLTLANTIGLQFQRYRLIPCGNHSYLKSLTDDRTELPLFCYGGQDVFLNNKYDRAMVAFLDCMQQFKEEAEKGELGLSLPYGIQVETGLMEDVGGRGECYSIRTHLNTQELWTKALKFMLINFKWSLIWVASRYQK
- binding: no binding
